In paper PMC6411869:

Target: HA-tagged TRIAD3B (E3 ubiquitin-protein ligase TRIAD3/RNF216, longest isoform) (human)
Test: co-IP; HA-tagged TRIAD3B co-expressed with flag-tagged candidate in HEK293T; lysis in 125 mM Tris pH 7.5, 150 mM NaCl, 1% Triton X-100, 10% glycerol; anti-HA agarose 4 h at 4 °C; anti-flag immunoblot

binding	Binder
binds	flag-tagged RNF41 (enzyme, UniProt Q9H4P4 1-317) MGYDVTRFQGDVDEDLICPICSGVLEEPVQAPHCEHAFCNACITQWFSQQQTCPVDRSVVTVAHLRPVPRIMRNMLSKLQIACDNAVFGCSAVVRLDNLMSHLSDCEHNPKRPVTCEQGCGLEMPKDELPNHNCIKHLRSVVQQQQTRIAELEKTSAEHKHQLAEQKRDIQLLKAYMRAIRSVNPNLQNLEETIEYNEILEWVNSLQPARVTRWGGMISTPDAVLQAVIKRSLVESGCPASIVNELIENAHERSWPQGLATLETRQMNRRYYENYVAKRIPGKQAVVVMACENQHMGDDMVQEPGLVMIFAHGVEEI
binds	flag-tagged Ankrd13D (Ankyrin repeat domain-containing protein 13D) (protein, UniProt Q6ZTN6 1-605) MAGPGPTFPLHRLVWANRHRELEAALHSHQHDIEQEDPRGRTPLELAVSLGNLESVRVLLRHNANVGKENRQGWAVLQEAVSTGDPEMVQLVLQYRDYQRATQRLAGIPELLNKLRQAPDFYVEMKWEFTSWVPLVSKMCPSDVYRVWKRGESLRVDTSLLGFEHMTWQRGRRSFIFKGQEAGALVMEVDHDRQVVHVETLGLTLQEPETLLAAMRPSEEHVASRLTSPIVSTHLDTRNVAFERNKCGIWGWRSEKMETVSGYEAKVYSATNVELVTRTRTEHLSDQDKSRSKAGKTPFQSFLGMAQQHSSHTGAPVQQAASPTNPTAISPEEYFDPNFSLESRNIGRPIEMSSKVQRFKATLWLSEEHPLSLGDQVTPIIDLMAISNAHFAKLRDFITLRLPPGFPVKIEIPLFHVLNARITFSNLCGCDEPLSSVWVPAPSSAVAASGNPFPCEVDPTVFEVPNGYSVLGMERNEPLRDEDDDLLQFAIQQSLLEAGTEAEQVTVWEALTNTRPGARPPPQATVYEEQLQLERALQESLQLSTEPRGPGSPPRTPPAPGPPSFEEQLRLALELSSREQEERERRGQQEEEDLQRILQLSLTEH

No constants are given. Whether binding was seen depends on the method and setting. In cells and extracts the contact can be indirect. A result given as binding can be weak or reduced; the word gives no strength. Tags and fused reporters may be left off the sequences shown.
